Experimental data published in patent US20160208330A1, “IDENTIFYING MARKERS OF CALORIC RESTRICTION AND CALORIC RESTRICTION MIMETICS” (NSE Products, Inc., priority 2011, published 2016).
At least one structure is not confirmed: it was looked up by name or label, or the drawing left a doubt.

Tested on: genes listed in Table 6 (CR marker panel), white adipose tissue
Test: Testing ingredients for mimicry of caloric restriction: feeding study, RT-qPCR of the Table 6 gene panel in white adipose tissue, fold change as percentage of the fold change in the CR group
Format: in vivo, C57BL/6J mice
Conditions: bezafibrate 5,000, 500 and 100 mg/kg diet, mimetic indices
Description: C57BL/6J mice were purchased from Jackson Laboratories at 6 weeks of age and maintained as described previously in Barger J L, et al. (2008) A Low Dose of Dietary Resveratrol Partially Mimics Caloric Restriction and Retards Aging Parameters in Mice. PLoS ONE 3(6): e2264 (http://dx.doi.org/10.1371/journal.pone.0002264). Briefly, mice were individually housed in shoebox cages and provided with 24 grams (˜84 kcal) of AIN-93M diet per week (7 grams on Monday and Wednesday and 10 grams on Friday). […]
In order to screen the ingredients for their ability to mimic CR, quantitative real-time PCR (RT-qPCR) analysis was performed on RNA isolated from white adipose tissue from all groups of mice. […] Briefly, the magnitude of change in gene expression was determined for each of the genes listed in Table 6 for the CR and treatment groups compared to the control animals. […]
CR mimicry was expressed as the fold change observed in each gene for the test group as a percentage of the fold change observed for that gene in the CR group. […]
Another ranking approach was used to reflect effects across all genes. A CR Mimetic Index (CRMI) was calculated per gene for each ingredient by assigning each a number of points based on its mimicry score for each gene. […]
Mimetic indices were calculated for the 500 mg/kg and 100 mg/kg doses as in Example 2.

## CC(C)(Oc1ccc(CCNC(=O)c2ccc(Cl)cc2)cc1)C(=O)O [Bezafibrate, bezafibrate]
  dose dependence of CR mimicry: dose-dependent
